We go through three molecules from PMC6561018, “Structure and Properties of a Natural Competence-Associated Pilin Suggest a Unique Pilus Tip-Associated DNA Receptor” (mBio, 2019).

For test [1], the target named is T1, ComZ (residues 31 to 554), Thermus thermophilus HB27 (Thermus thermophilus HB27) (UniProt Q8KPZ1).
T1 sequence: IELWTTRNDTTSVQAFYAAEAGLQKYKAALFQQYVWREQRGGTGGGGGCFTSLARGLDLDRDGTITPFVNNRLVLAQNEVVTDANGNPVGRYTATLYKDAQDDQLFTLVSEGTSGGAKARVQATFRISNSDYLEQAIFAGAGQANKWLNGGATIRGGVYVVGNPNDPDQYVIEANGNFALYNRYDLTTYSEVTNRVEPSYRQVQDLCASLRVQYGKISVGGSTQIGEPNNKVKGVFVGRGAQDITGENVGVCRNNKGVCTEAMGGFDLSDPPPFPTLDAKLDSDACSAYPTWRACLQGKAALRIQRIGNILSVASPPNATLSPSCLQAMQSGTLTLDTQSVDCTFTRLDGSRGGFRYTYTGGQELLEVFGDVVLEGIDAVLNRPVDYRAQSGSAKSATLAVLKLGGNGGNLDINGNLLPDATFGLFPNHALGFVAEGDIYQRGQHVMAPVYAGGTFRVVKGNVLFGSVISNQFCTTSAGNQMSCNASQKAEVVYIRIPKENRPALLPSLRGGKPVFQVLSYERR
The experiment in a line: condition: 0.036 μmol of ComZ and 0.027 μmol of PilA1 loaded; SEC; HiLoad 16/600 Superdex 200 PG, 1 ml/min, 25 mM Tris-HCl pH 8.0, 200 mM NaCl, 5% glycerol; proteins incubated together at 4°C for 30 min before the run; each protein also run alone; peaks checked by SDS-PAGE; both purified.

The target of test [2] is T1, ComZ (residues 31 to 554), Thermus thermophilus HB27 (Thermus thermophilus HB27). In words: condition: 3 mg of ComZ and 2 mg of each pilin loaded; pull-down; reverse affinity tag assay on a HisTrap HP (Ni) column holding His-tagged ComZ; ComZ, PilA2 and PilA3 incubated together in 25 mM Tris-HCl pH 8.0, 200 mM NaCl, 5% glycerol at 4°C; eluted proteins examined by SDS-PAGE; both purified.

Test [3] deals with T2, PilA3 soluble domain (residues 33 to 233), Thermus thermophilus HB27 (Thermus thermophilus HB27) (UniProt Q72JC2).
T2 sequence: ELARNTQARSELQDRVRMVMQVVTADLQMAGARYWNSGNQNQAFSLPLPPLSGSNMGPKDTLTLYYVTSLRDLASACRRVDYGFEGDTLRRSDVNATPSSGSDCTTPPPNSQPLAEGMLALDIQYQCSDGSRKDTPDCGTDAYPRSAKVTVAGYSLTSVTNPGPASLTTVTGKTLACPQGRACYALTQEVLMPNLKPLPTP
In words: pull-down; affinity tag assay on a StrepTrap HP column holding the Strep-tag II pilin; 3 mg ComZ and 2 mg pilin incubated in 25 mM Tris-HCl pH 8.0, 200 mM NaCl, 5% glycerol at 4°C for about 30 min; eluted proteins examined by SDS-PAGE; both purified.

Test [4] deals with T1, ComZ (residues 31 to 554), Thermus thermophilus HB27 (Thermus thermophilus HB27). In words: SEC; SEC during purification of ComZ alone; HiLoad 16/600 Superdex 75 PG, 25 mM Tris-HCl pH 8.0, 200 mM NaCl, 5% glycerol, 25°C; both purified. A general note: Size exclusion chromatography separates by hydrodynamic size, large species first.

Results are given in words; binding and its absence hold for the method and conditions named.

B1: PilA1 soluble domain (residues 30 to 156), Thermus thermophilus HB27 (domain or fragment, UniProt Q72JC4 30-156)
chain: SPNRLALDQAARSLATQVTRARLEAIRRNAFVGLQVFTEGAGGYLLFVDQNANRRYDPGEEFGATHFGQGNWARVRLDPEKSALGNMPLLFDPRGIPAKPITATLVLTSGGATRKVVISQQGRARLE
Regarding B1, the binding entry in test [1] is recorded as “no binding”.

B2: PilA3 soluble domain (residues 33 to 233), Thermus thermophilus HB27 (domain or fragment, UniProt Q72JC2 33-233, looked up)
chain: T2 sequence
notes: Synthetic gene (GeneArt), codon-optimised for E. coli, in pET-22b (BamHI/XhoI); source: E. coli Lemo21(DE3), purified (StrepTrap HP, SEC); not shown: Strep-tag II, C-terminal, kept
With B2, in test [2], the binding result was “no binding”.

B3: ComZ (residues 31 to 554), Thermus thermophilus HB27 (domain or fragment, UniProt Q8KPZ1 31-554)
chain: T1 sequence
B3: the binding result in test [3] is “no binding (tested: 3 mg of ComZ and 2 mg of PilA3 loaded)”; in test [4] it was “no binding”.
